No constants are given. Whether binding was seen depends on the method and setting. In cells and extracts the contact can be indirect. Some entries that bind do so weakly or less than the wild type.

The chains behind the UniProt entries cited, without tags or fusion partners.
UniProt P54252: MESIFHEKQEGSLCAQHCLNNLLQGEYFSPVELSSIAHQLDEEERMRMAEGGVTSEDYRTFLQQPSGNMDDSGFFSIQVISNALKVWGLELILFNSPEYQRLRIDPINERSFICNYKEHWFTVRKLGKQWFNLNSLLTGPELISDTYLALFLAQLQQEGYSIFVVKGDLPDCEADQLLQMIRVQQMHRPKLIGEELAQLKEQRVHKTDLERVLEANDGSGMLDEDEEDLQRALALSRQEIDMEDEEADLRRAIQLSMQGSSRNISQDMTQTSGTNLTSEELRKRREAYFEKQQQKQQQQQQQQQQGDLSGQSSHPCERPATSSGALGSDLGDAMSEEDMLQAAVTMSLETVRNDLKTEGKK

The target of assay [1] is T1, Arginine/Serine-rich splicing factor 7 (SRSF7) (human (endogenous in SH-SY5Y)) (UniProt Q16629).
T1 sequence: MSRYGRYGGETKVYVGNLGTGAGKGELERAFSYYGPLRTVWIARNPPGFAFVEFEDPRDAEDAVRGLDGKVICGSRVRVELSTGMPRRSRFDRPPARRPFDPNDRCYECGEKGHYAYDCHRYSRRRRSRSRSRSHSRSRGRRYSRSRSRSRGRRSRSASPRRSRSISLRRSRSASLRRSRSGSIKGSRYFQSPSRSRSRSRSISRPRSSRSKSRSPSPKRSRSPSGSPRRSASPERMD
Briefly: co-IP.

Assay [2] addresses T1, Arginine/Serine-rich splicing factor 7 (SRSF7) (human (endogenous in SH-SY5Y)). Briefly: proximity ligation.

In the case of “Ataxin-3 (ATXN3) (from UniProt P54252 1-361)”, the binding result in assay [1] and in assay [2] was “binds” in each case.

The values are drawn from doi:10.1101/711424.
